These results are taken from article PMC4669772, “The conserved Trp114 residue of thioredoxin reductase 1 has a redox sensor-like function triggering oligomerization and crosslinking upon oxidative stress related to cell death” (Cell Death & Disease, 2015).

The target in test [1] is thioredoxin reductase 1 (TrxR1), endogenous in HCT116 cells (human (endogenous in HCT116)) (UniProt Q16881). In words: cross-linking; covalent ≈110 kDa TrxR1 species resistant to reducing SDS-PAGE, formed in HCT116 cells treated with 1 μM RITA for 8 h; western blot of lysates; immunoprecipitation with anti-TrxR1 19A1, Coomassie-stained band, tryptic digest and MALDI-TOF-MS. Background: A western blot detects proteins with antibodies after separation by electrophoresis.

Test [2] shares this target. Put plainly: cross-linking; covalent crosslinking of TrxR1 subunits on treatment of cells with iron-triapine; data not shown.
Test [3] shares this target. In words: SEC; gel filtration of crude protein lysates of HCT116 cells (control, RITA, NDGA+RITA); fractions analysed for TrxR activity and by western blot of reducing SDS-PAGE. A general note: Size exclusion chromatography separates by hydrodynamic size, large species first.
Test [4] addresses N-terminally FLAG-tagged human wild-type TrxR1 (human) (UniProt Q16881). In words: cross-linking; covalently linked TrxR1 species on reducing SDS-PAGE of lysates of HCT116 cells transfected with FLAG-tagged human TrxR1 variants, treated with 1 μM RITA for 8 h (with or without 50 μM NDGA); immunoblot with anti-TrxR1 or anti-FLAG.

These are yes or no findings as the source states them, for the method shown. For some of these results: In cells and extracts the contact can be indirect. Some results given as binding are weak or reduced against the parent protein; the word gives no strength. For some of these results: Where a sequence is shown, tags or fusion partners need not be part of it.

B1: thioredoxin reductase 1 (TrxR1), endogenous in HCT116 cells (enzyme, UniProt Q16881-5 1-499)
chain: MNGPEDLPKSYDYDLIIIGGGSGGLAAAKEAAQYGKKVMVLDFVTPTPLGTRWGLGGTCVNVGCIPKKLMHQAALLGQALQDSRNYGWKVEETVKHDWDRMIEAVQNHIGSLNWGYRVALREKKVVYENAYGQFIGPHRIKATNNKGKEKIYSAERFLIATGERPRYLGIPGDKEYCISSDDLFSLPYCPGKTLVVGASYVALECAGFLAGIGLDVTVMVRSILLRGFDQDMANKIGEHMEEHGIKFIRQFVPIKVEQIEAGTPGRLRVVAQSTNSEEIIEGEYNTVMLAIGRDACTRKIGLETVGVKINEKTGKIPVTDEEQTNVPYIYAIGDILEDKVELTPVAIQAGRLLAQRLYAGSTVKCDYENVPTTVFTPLEYGACGLSEEKAVEKFGEENIEVYHSYFWPLEWTIPSRDNNKCYAKIICNTKDNERVVGFHVLGPNAGEVTQGFAAALKCGLTKKQLDSTIGIHPVCAEVFTTLSVTKRSGASILQAGCUG
modifications: selenocysteine (Sec, U) at 498
Regarding B1, the binding entry in test [1], in test [2] and in test [3] was “binds” each time.

B2: N-terminally FLAG-tagged human wild-type TrxR1 (enzyme, UniProt Q16881-5 1-499)
chain: B1 chain
modifications: selenocysteine (Sec, U) at 498
As for B2, in test [4], the binding result is reported as “binds”.
